From PubChem BioAssay AID493014 (National Center for Advancing Translational Sciences (NCATS), 2011)
Screen size: about 340,000 compounds; about 170 (0.05%) were called active. This list was built around the results that the source calls inconclusive (neither active nor inactive); the mix of calls is not that of the screen. Calls follow the shape of the dose curve; as a rule, active = well fitted inhibition curve with a large enough effect in the signal ratio, with a control signal flat (not every such curve was filed as active); inconclusive = small, poorly fitted or top-dose-only effect, or effect the other way, or a change in a side signal; inactive = flat fitted curve, though single readings scatter; the % refers to the signal ratio. Potencies of inconclusive entries are doubtful fits and often do not repeat.
Potency is read from the fitted curve at half-maximal effect.

Assay: qHTS Assay to Find Inhibitors of Chronic Active B-Cell Receptor Signaling;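 as to activity change, negative = inhibition: plate controls were basal doxycycline-induced cells for no effect and cells given 10 µM MG132 for full effect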
Details: ABC-DLBCL IkBa-CBG/CBR reporter, luminescence ratio (green luciferase fused to IkBa over red control in TMD8 lymphoma cells), 4 h; activity change, negative = inhibition: at 46.1 µM (top of the series)
Procedure, shortened: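 Compounds up to 46 uM were incubated four hours with TMD8 cells whose green CBG68 luciferase is fused to IkappaBalpha; red CBR luminescence normalised the signal, and concentration-effect curves were fitted to fusion, red and ratio data.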
With `COc1ccc(C2CC(c3ccc(OC)cc3O)=NN2C(=O)c2ccccc2)cc1` (stereo not drawn) the “activity change, negative = inhibition” value was inactive: 1.56%.
For `COc1ccccc1-c1ocnc1C(=O)Nc1ccc(N2CCOCC2)cc1N1CCOCC1`, the Potency was inconclusive: 10 µM [falling, partial curve].
With `COC(=O)c1sc(S(=O)(=O)Nc2ccc3cn[nH]c3c2)c(C(=O)OC)c1C` the activity change, negative = inhibition was inconclusive: 8.2%.
For `Cc1occc1C(=O)N/N=C/c1ccccn1`, the Potency was inconclusive: 25.1 µM [falling, partial curve].
With `CN(c1ccccc1)S(=O)(=O)c1cccc(NC(=O)COc2cccc([N+](=O)[O-])c2)c1` the activity change, negative = inhibition was inconclusive: -10.5%.
In the case of `O=C(Nc1ccc2c(c1)OCO2)c1ccc(Br)s1`, the Potency is reported as inconclusive: 23.1 µM [falling, single point].
With `CCCCNC(=O)/C=C/c1ccc(S(=O)(=O)Nc2ccc(OC)cc2)cc1` the activity change, negative = inhibition was inconclusive: 0.283%.
With `COc1c2ccoc2nc2c(OC)cccc12` the Potency was inconclusive: 29.1 µM [falling, single point].
With `CCn1c(=O)cc(SCC(=O)NCc2cccnc2)c2ccccc21` the Potency was inconclusive: 3.16 µM [falling, partial curve, poor fit].
With `C/C(=N\NC(=O)C1COc2ccccc2O1)c1cccs1` (stereo not drawn) the activity change, negative = inhibition was inconclusive: 5.34%.
In the case of `Cc1ccsc1C1C(C#N)=C(N)N(N(C)C)C2=C1C(=O)CCC2` (stereo not drawn), the activity change, negative = inhibition is reported as inconclusive: 1.56%.
For `Nc1c2c(nc3ccn(-c4ccccc4)c(=O)c13)CCCCC2`, the “activity change, negative = inhibition” value was inactive: 3.33%.
In the case of `CN1CCc2nc(SCC(=O)Nc3ccc(F)cc3)c(C#N)cc2C1`, the Potency is reported as inconclusive: 4.11 µM [falling, partial curve, poor fit].
With `COc1cc(-n2c(N)c(C(=O)NCc3ccco3)c3nc4ccccc4nc32)cc(OC)c1OC` the activity change, negative = inhibition was inconclusive: 0.552%.
With `CC1(C)CC(Nc2ccc(Nc3ccccc3)cc2)CC(C)(C)N1` the activity change, negative = inhibition was inconclusive: 7.25%.
In the case of `COCCNC(=O)Cn1cnc2c1c(=O)n(C)c(=O)n2C`, the Potency is reported as inconclusive: 0.13 µM [falling, full curve, poor fit].
For `COc1cccc(CNC(=O)Cc2csc(NC(=O)Nc3ccccc3OC)n2)c1`, the “activity change, negative = inhibition” value was inactive: -1.65%.
For `CCCc1cc(=O)oc2cc(OC3CCCCC3=O)ccc12` (stereo not drawn), the activity change, negative = inhibition was inconclusive: 0.655%.
With `Cc1ccc(-n2nnnc2-c2ccccc2)cc1` the “activity change, negative = inhibition” value was inactive: -11.6%.
For `O=C(Nc1cc(C(F)(F)F)ccc1-n1cncn1)c1ccc([N+](=O)[O-])o1`, the “activity change, negative = inhibition” value was inactive: 0.192%.
For `CCOc1ccccc1CN1CCNC(=O)C1CC(=O)NCCCn1cccn1` (stereo not drawn), the “activity change, negative = inhibition” value was inactive: -4.77%.
With `Cc1cc(C)c(C#N)c(N2CCN(c3ccccc3F)CC2)n1` the activity change, negative = inhibition was inconclusive: 1.97%.
In the case of `O=C(O)CSC1CC(=O)N(c2ccc(Cl)c(Cl)c2)C1=O` (stereo not drawn), the activity change, negative = inhibition is reported as inconclusive: 0.393%.
In the case of `CC(=O)Nc1c(Br)cc(N2C(=O)CCC2=O)cc1Br`, the activity change, negative = inhibition is reported as inconclusive: -0.951%.
In the case of `COc1ccccc1CNc1ncnc2sccc12`, the Potency is reported as inconclusive: 2 µM [falling, partial curve, poor fit].
For `O=C(NCCCN1CCOCC1)c1ccc2c(=O)n(Cc3cccc(Br)c3)c(=S)[nH]c2c1`, the activity change, negative = inhibition was inconclusive: -11.3%.
In the case of `Cc1ccc(-n2ncc3c(N4CCC(C(N)=O)CC4)ncnc32)cc1`, the activity change, negative = inhibition is reported as inconclusive: 10.6%.
With `C/C(=N/NC(=O)c1ccc(C)s1)c1ccncc1` the Potency was inconclusive: 15.8 µM [falling, partial curve].
For `CCC(=O)NC(NC(=S)Nc1cccc2cccnc12)C(Cl)(Cl)Cl` (stereo not drawn), the “activity change, negative = inhibition” value was inactive: -1.14%.
With `CCOC(=O)c1cc2c(ccn2C)n1Cc1ccccc1Cl` the activity change, negative = inhibition was inconclusive: 1.5%.
With `Cc1ccc(C(=O)NC(=S)Nc2cccc3c(C)cc(C)nc23)cc1` the “activity change, negative = inhibition” value was inactive: -1.87%.
For `COc1cccc(Cn2c(C3CC3)nc3ccc(NC(=O)c4ccco4)cc3c2=O)c1`, the activity change, negative = inhibition was inconclusive: 2.7%.
With `O=C(NNc1ncc(C(F)(F)F)cc1Cl)c1c(Cl)cccc1Cl` the Potency was inconclusive: 25.1 µM [falling, single point].
In the case of `CCN(CC)S(=O)(=O)c1ccc(NC(=O)Nc2cccc(C(F)(F)F)c2)cc1`, the activity change, negative = inhibition is reported as inconclusive: -34.7%.
With `CC1CCCN(C(=O)COC(=O)c2cc(-c3cccs3)nn2-c2ccccc2)C1` (stereo not drawn) the “activity change, negative = inhibition” value was inactive: 8.3%.
With `Cc1ccc(SCC(=O)Nc2ccc(N3CCOCC3)cc2)cc1C` the activity change, negative = inhibition was inconclusive: -7.53%.
In the case of `Cc1ccc(N/C=C/c2onc(C)c2[N+](=O)[O-])cc1`, the activity change, negative = inhibition is reported as inconclusive: 12.8%.
With `CCC1(C)CC(c2nc(-c3ccc(OC)cc3)cs2)CCS1` (stereo not drawn) the activity change, negative = inhibition was inconclusive: 20.1%.
For `C=CCNC(=S)Nc1ccc(N(C)C)cc1`, the activity change, negative = inhibition was inconclusive: -0.769%.
For `Cc1cc(F)ccc1N1CCC(N2CCN(C(C)C)C(CCO)C2)CC1` (stereo not drawn), the activity change, negative = inhibition was inconclusive: 8.48%.
For `CC(C)(C)c1ccc(C(=O)Nc2ccccc2Cl)cc1`, the Potency was inconclusive: 12.6 µM [falling, single point].
In the case of `Cc1cc(C(=O)NCC(=O)OC(C)C(=O)N2CCOCC2)ccc1[N+](=O)[O-]` (stereo not drawn), the activity change, negative = inhibition is reported as inconclusive: 2.64%.
In the case of `O=C(Nc1cc2c(ccc3ccccc32)oc1=O)C1CCCCC1`, the activity change, negative = inhibition is reported as inconclusive: 8.53%.
For `O=c1oc2ccccc2c(O)c1/C=N/c1ncccn1`, the Potency was inconclusive: 25.1 µM [falling, partial curve].
For `COc1ccc(OC)c(N(CC(=O)NCCSCc2ccc(C)cc2)S(C)(=O)=O)c1`, the “activity change, negative = inhibition” value was inactive: -3.43%.
With `CCCn1c(SCC(=O)Nc2ccc(NC(C)=O)cc2)nc2c1c(=O)n(C)c(=O)n2C` the “activity change, negative = inhibition” value was inactive: -0.0199%.
For `CSC(=O)NC(=O)NC(=O)c1ccc([N+](=O)[O-])cc1`, the activity change, negative = inhibition was inconclusive: 15.8%.
For `CCc1ccc2[nH]c(=O)c(CN(CCN(C)C)C(=S)NCc3ccco3)cc2c1`, the Potency was inconclusive: 35.5 µM [falling, single point].
With `C=CCNCC(=O)N1N=C(c2ccc3ccccc3c2)CC1c1ccc(OC)cc1` (stereo not drawn) the “activity change, negative = inhibition” value was inactive: -17.5%.
In the case of `CCN(CC)S(=O)(=O)c1ccc(Cl)c(C(=O)Nc2nnc(C)s2)c1`, the Potency is reported as inconclusive: 35.5 µM [falling, single point].
With `CN(C)c1ccc(C(CNC(=O)COc2ccc(Cl)cc2)N2CCCC2)cc1` (stereo not drawn) the activity change, negative = inhibition was inconclusive: -28.9%.
With `COc1ccc(CC(=O)Nc2ccc(-c3nc4cc(C)ccc4o3)c(O)c2)cc1OC` the activity change, negative = inhibition was inconclusive: 20.6%.
In the case of `Cn1c(SCC(=O)NCCc2ccccc2)ncc(C(=O)Nc2ccc(F)cc2)c1=O`, the activity change, negative = inhibition is reported as inconclusive: 0%.
